Assay results: PMC2774295
Results are given in words; binding and its absence hold for the method and conditions named. Binding seen in cells or lysates may run through a third protein. Some entries that bind do so weakly or less than the wild type.

Amino acid sequences for entries named in this document (tags omitted).
UniProt P25054: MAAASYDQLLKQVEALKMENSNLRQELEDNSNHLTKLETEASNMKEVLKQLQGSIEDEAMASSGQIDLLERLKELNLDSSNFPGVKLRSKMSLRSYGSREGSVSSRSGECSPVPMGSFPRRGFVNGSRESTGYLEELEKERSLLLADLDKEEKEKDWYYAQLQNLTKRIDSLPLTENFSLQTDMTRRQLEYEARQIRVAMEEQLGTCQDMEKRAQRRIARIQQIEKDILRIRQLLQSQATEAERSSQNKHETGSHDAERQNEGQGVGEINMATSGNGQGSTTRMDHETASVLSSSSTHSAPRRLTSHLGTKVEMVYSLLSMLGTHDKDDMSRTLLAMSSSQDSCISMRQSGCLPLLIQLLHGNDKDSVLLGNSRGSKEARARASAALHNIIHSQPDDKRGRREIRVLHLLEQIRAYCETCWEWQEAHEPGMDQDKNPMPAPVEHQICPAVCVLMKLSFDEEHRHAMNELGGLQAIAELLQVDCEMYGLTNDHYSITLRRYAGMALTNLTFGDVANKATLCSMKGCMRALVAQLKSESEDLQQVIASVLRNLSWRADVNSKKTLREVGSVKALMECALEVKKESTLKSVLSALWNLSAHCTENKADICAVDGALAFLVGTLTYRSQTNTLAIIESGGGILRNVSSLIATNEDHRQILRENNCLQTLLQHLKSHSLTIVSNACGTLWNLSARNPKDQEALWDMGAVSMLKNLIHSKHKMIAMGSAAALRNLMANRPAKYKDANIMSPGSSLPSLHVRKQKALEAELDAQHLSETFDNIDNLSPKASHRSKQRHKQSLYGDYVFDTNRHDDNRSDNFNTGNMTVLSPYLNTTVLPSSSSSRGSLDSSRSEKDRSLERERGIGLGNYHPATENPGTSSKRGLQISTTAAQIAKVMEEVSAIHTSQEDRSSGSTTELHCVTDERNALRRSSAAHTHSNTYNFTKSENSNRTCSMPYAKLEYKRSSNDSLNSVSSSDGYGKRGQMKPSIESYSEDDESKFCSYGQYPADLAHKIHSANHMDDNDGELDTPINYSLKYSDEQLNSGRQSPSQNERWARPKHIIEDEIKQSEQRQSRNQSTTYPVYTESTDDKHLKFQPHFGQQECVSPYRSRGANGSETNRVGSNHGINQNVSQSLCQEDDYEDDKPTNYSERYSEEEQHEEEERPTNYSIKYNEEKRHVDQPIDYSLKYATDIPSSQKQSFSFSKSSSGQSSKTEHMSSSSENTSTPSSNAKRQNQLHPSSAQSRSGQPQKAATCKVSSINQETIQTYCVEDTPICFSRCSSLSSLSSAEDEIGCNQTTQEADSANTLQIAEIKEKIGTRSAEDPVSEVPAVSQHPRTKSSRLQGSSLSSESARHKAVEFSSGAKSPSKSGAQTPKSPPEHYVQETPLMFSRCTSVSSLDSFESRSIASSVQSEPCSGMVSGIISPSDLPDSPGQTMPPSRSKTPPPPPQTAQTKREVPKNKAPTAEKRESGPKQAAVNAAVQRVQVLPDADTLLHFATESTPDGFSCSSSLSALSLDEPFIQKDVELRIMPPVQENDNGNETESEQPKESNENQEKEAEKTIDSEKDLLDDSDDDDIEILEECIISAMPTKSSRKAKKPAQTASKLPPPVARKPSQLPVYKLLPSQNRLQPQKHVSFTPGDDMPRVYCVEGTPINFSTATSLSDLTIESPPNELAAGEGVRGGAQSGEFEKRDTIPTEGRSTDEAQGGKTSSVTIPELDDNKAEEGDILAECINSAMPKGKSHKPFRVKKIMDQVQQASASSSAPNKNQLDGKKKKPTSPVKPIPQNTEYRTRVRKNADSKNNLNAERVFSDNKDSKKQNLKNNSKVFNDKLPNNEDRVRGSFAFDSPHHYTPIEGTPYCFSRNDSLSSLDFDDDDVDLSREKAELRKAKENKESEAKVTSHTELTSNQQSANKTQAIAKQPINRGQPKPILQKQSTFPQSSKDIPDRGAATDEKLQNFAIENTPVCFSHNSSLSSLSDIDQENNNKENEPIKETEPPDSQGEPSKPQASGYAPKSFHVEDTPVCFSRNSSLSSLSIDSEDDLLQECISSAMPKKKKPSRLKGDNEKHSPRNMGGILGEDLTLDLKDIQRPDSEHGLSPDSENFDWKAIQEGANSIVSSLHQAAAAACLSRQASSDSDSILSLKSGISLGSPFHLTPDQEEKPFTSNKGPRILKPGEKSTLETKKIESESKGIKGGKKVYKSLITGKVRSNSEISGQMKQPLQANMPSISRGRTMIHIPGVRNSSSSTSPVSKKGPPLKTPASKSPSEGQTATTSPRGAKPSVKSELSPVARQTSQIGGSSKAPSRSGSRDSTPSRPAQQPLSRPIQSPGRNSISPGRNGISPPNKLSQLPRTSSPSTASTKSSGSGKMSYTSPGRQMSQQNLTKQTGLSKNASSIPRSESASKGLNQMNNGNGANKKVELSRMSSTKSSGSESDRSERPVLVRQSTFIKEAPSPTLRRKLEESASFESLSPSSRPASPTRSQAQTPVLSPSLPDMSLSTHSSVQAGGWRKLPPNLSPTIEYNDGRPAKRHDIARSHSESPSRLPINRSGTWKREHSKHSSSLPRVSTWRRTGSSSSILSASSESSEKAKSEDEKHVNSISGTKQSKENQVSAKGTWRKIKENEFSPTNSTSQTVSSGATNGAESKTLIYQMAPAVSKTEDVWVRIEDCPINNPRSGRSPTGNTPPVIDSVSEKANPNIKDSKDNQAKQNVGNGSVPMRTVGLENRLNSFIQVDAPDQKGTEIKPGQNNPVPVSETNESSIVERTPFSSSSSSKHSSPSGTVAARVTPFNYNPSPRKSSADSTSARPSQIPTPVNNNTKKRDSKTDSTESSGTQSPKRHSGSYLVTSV
UniProt P20700: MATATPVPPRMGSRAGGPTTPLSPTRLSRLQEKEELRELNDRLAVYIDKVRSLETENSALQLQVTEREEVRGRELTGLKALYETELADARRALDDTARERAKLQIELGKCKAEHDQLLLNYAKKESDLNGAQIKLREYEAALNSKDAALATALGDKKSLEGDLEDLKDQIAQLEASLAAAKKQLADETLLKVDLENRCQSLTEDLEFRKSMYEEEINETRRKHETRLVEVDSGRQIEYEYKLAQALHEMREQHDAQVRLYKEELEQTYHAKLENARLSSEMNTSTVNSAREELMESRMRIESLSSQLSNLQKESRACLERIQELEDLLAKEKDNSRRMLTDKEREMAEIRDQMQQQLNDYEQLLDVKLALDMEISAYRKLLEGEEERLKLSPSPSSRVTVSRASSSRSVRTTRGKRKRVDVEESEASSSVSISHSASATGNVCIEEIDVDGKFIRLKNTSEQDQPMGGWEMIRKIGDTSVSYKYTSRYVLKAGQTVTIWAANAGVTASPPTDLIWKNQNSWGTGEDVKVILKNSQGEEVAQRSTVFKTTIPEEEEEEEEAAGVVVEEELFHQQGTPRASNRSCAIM

Molecular target: Adenomatous Polyposis Coli (APC), endogenous full-length (human (endogenous in HCT116βw)) (UniProt P25054)
Experiment: co-IP; endogenous APC precipitated from soluble cell lysate with APC-M2 pAb crosslinked to Protein-A dynabeads, overnight at 4°C; lysis buffer 50 mM Tris pH 7.5, 0.1% NP-40, 100 mM NaCl, 1 mM MgCl2, 5 mM EDTA; partners detected by immunoblot; preimmune sera as control

With Lamin B1 (from UniProt P20700 1-586) the binding was “binds”.
